Measured values taken from PMC9117658.
These are yes or no findings as the source states them, for the method shown. In cells and extracts the contact can be indirect. A result given as binding can be weak or reduced; the word gives no strength.

The chains behind the UniProt entries cited, without tags or fusion partners. Where a name states a change or a piece, a line headed by the entry shows the natural chain unless it says otherwise.
UniProt P68104: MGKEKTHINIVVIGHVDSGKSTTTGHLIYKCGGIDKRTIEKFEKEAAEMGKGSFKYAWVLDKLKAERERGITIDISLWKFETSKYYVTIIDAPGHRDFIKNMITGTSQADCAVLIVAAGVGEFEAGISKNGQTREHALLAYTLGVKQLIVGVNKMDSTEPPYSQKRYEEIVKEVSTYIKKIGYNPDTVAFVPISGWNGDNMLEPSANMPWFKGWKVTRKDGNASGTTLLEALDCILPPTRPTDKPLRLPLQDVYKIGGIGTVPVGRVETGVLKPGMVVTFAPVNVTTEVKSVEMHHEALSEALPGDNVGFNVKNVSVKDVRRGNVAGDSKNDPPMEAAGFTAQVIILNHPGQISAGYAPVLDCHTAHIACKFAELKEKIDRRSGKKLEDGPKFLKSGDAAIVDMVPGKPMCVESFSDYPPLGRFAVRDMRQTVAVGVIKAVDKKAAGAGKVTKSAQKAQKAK
UniProt Q00987: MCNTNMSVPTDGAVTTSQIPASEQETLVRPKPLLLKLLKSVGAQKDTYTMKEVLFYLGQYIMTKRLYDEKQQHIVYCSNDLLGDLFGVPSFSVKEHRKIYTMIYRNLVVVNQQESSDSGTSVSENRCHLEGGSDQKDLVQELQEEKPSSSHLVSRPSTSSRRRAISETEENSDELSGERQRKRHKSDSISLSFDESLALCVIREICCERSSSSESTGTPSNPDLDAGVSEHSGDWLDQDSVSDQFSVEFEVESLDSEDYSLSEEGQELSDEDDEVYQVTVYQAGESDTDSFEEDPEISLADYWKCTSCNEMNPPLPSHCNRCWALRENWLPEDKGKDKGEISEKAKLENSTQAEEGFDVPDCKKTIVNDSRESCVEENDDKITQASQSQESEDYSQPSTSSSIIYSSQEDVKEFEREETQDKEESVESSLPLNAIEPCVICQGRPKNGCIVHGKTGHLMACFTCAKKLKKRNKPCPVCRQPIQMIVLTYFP

Molecular target: EEF1A1 (human (endogenous in AGS and MKN-45)) (UniProt P68104)
Test: co-IP; anti-EEF1A1 antibody on Protein A/G PLUS-Agarose beads, incubated with protein lysate of AGS and MKN-45 cells transfected with pcDNA EEF1A1 or control pcDNA; also AGS cells transfected with tRF-Val at 0, 10, 20, 50 and 100 nmol; blots with anti-MDM2 and anti-p53; IgG as control

- binding: binds
Substance: MDM2 (from UniProt Q00987)
